{
  "source": "patent US20050076398A1",
  "about": "“Animal model of chronic stress diseases and method for producing the same” (Ajinomoto Co., Inc., priority 2002, published 2005)",
  "system": "lysine deficient rats",
  "assay": "Effect of a medicine on abnormal bowel movement of lysine deficient rats (carmine dye feces count)",
  "assay_type": "in vivo, rats (male Wistar)",
  "details": "oral administration with carmine dye; rats fed low lysine diet 7 days, fasted one day; Dunnett's method",
  "data": [
    {"smiles": "CN1[C@@H]2CC[C@H]1C[C@@H](OC(=O)C(CO)c1ccccc1)C2", "note": "(some centres unmarked) [Atropine]", "values": [
      {"measurement": "acceleration of the excretion of carmine-containing feces", "value": "significantly control the acceleration of the excretion of the feces"}
    ]},
    {"smiles": "CN1C(=O)CN=C(c2ccccc2)c2cc(Cl)ccc21", "note": "[Diazepam]", "values": [
      {"measurement": "acceleration of the excretion of carmine-containing feces", "value": "significantly control the acceleration of the excretion of the feces"}
    ]}
  ]
}
